Source: patent publication US20260167714A1
Results are given in words; binding and its absence hold for the method and conditions named. Some results given as binding are weak or reduced against the parent protein; the word gives no strength. Values belong to the binder of their own block, whether it stands above or below them.

By UniProt entry, the sequences of proteins in these tests, tags left out. Where a name states a change or a piece, a line headed by the entry shows the natural chain unless it says otherwise. Residues count along the entry.
UniProt Q8N6C8: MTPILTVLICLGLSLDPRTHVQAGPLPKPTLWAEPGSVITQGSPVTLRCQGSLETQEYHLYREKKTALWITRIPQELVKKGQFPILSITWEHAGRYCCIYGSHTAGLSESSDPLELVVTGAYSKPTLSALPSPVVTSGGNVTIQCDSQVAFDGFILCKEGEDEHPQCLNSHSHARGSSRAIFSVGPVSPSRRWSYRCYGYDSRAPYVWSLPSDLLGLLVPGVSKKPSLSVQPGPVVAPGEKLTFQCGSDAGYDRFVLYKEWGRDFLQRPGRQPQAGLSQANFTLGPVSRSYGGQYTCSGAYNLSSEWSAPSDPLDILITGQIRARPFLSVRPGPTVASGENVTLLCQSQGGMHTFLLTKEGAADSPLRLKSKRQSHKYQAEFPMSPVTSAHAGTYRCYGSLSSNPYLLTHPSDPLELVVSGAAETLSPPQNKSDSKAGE
UniProt Q8N423, residues 22-597: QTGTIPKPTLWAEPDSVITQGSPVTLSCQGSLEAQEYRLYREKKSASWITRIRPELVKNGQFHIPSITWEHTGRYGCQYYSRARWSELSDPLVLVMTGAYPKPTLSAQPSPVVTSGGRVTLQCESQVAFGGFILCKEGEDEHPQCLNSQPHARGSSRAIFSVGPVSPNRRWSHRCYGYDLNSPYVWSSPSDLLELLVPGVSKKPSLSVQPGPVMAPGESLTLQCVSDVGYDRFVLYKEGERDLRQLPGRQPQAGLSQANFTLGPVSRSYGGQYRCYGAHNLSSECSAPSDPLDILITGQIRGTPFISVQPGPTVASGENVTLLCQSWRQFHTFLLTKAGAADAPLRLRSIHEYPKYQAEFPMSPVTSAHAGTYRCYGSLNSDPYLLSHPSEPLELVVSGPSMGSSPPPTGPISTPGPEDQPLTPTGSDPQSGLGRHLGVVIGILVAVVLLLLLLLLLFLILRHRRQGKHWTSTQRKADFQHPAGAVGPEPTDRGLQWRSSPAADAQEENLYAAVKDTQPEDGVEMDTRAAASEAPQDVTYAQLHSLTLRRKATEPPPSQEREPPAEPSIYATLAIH

What was measured:
LILRA3 (human) = LILRA3 (human) (UniProt Q8N6C8); assay: SPR, Biacore 8K cross-reactivity study
[1] = target: human ILT4 expressed on cells (human) (UniProt Q8N423); assay: flow cytometry blocking assay: CHO-S/ILT4 cells preincubated with antibody, then PE-HLA-G tetramer; relative blocking activity (%)
[2] = target: human ILT4 expressed on cells (human) (UniProt Q8N423); assay: flow cytometry competition: unlabelled mAb (0-15 µg/mL) on ILT4-CHO cells, wash, then stained with the competitor AF647-Hz45.01-LALA
[3] = target: human ILT4 expressed on cells (human) (UniProt Q8N423); assay: flow cytometry competition: unlabelled mAb (0-15 µg/mL) on ILT4-CHO cells, wash, then stained with the competitor AF647-Hz156.03-LALA [panel Hz45.01-LALA]
[4] = target: human ILT4 expressed on cells (human) (UniProt Q8N423); assay: flow cytometry competition: unlabelled mAb (0-15 µg/mL) on ILT4-CHO cells, wash, then stained with the competitor AF647-Hz156.03-LALA
[5] = target: human ILT4 expressed on cells (human) (UniProt Q8N423); assay: flow cytometry competition: unlabelled mAb (0-15 µg/mL) on ILT4-CHO cells, wash, then stained with the competitor AF647-Hz45.01-LALA [panel Hz45.01-LALA]
[6] = target: human ILT4 expressed on cells (human) (UniProt Q8N423); assay: flow cytometry blocking assay: antibody titrated (0-15 µg/mL) on ILT4-CHO cells, blocked ligand PE-HLA-G tetramer; HLA-G binding (%)
[7] = target: human ILT4 expressed on cells (human) (UniProt Q8N423); assay: flow cytometry blocking assay: antibody titrated (0-15 µg/mL) on ILT4-CHO cells, blocked ligand PE-HLA-A tetramer at 5 ug/ml; HLA-A binding (%)
[8] = target: human ILT4 expressed on cells (human) (UniProt Q8N423); assay: flow cytometry, direct binding of AF647-labelled antibody (0-10 µg/ml) to ILT4-CHO cells
[9] = target: human ILT4 expressed on cells (human) (UniProt Q8N423); assay: flow cytometry, AF647-labelled mAb 0-10 µg/ml on ILT4-CHO cells
[10] = target: human ILT4 expressed on cells (human) (UniProt Q8N423); assay: flow cytometry competition: unlabelled mAb (0-15 µg/mL) on ILT4-CHO cells, wash, then stained with the competitor AF647-Hz156.03-LALA [panel Hz156.03-LALA]
[11] = target: human ILT4 expressed on cells (human) (UniProt Q8N423); assay: flow cytometry competition: unlabelled mAb (0-15 µg/mL) on ILT4-CHO cells, wash, then stained with the competitor AF647-Hz45.01-LALA [panel Hz156.03-LALA]

B2: L41S5 (antibody, IgG2a, V domains shown)
VH: QVQLQQSGAELVKPGASVKISCKASGYAFSSYWMNWVKQRPGKGLEWIGQIYPGHGDTNYNGKFKGKATLTADKSSSTAYMQLSSLTSEDSAVYFCAKEGSELGRLFAYWGQGTLVTVSA
VL: QIVLTQSPALMSASPGEKVTMTCSASSSVSFMYWYQQKPRSSPKPWIYLTSNLASGVPARFSGSGSGTSYSLTISSMEAEDAATYYCQQWSSNPPTFGGGTKLEIK
binding [1]: binds

B3: L156S3 (antibody, IgG2a, V domains shown)
VH: QVQLKQSGAELVRPGASVKLSCRASGYTFTDYYMNWVKQRPGQGLEWIARIYPGVYRTHYNEKFKDKATLTAEKSSSTAYMELSSLTSEDSAVYFCARSGYYGGTYEEDAMDYWGQGTSVTVSS
VL: DIQMTQSPASLSVSVGETVTITCRASENIYSNLAWYQQKQGKSPQLLVYAATSLADGVPSRFRGSGSGTQYSLKISSLQSEDFGNYYCQNFWDTPYTFGGGTKLEIK
binding [1]: binds

B4: L180S4 (antibody, IgG1, V domains shown)
VH: EVHLQQSGPELVKPGASVKISCKASGYSFIGYFMNWMKQSHGKSLEWIGRINPYNGDIFYNQKFKGKATLTVDKSSTTAHMDLLSLTSEDFAVYYCARGITVAAGSFDVWGTGTTVTVSS
VL: DIVLTQSPASLAVSLGQRATISCRASESVDNYGNTFMHWYQQKPGQPPKLLIYRASNLESGIPARFSGSGSKTDFTLTINPVEADDVATYYCQQSSDHPLTFGAGTKLELS
binding [1]: binds

B5: L77S2 (antibody, IgG1, V domains shown)
VH: DVQLQQSGPELVKPGNSVKISCKAAGYSFTGYSVNWVKERHGKSLEWIGRINPYNGDIFNNQKFKGKATLTVDKSSSTAHMELRSLTSEDSAVYYCARGTTVGGAWFAYWGQGTLVTVSA
VL: VIVLTQSPASLAVSLGQRAAISCRASESVDSYGYSFLHWYQQKPGQPPKLLIYLASNLESGIPARFSGSGSGTDFTLTINPVEADDVATYYCQQSNEDLMYTFGGGTKLEIK
binding [1]: binds

B8: L45S4 (antibody, IgG2a, V domains shown)
VH: EVQLQQSGPELVKPGASVKISCKASGYTFTDYYMNWVKQSHGKSLEWIGDINPNNGGTSYNQKFKGKATLTVDKSSSTAYMELRSLTSEDSAVYYCARGGAELTGTYWYFDVWGTGTTVTVSS
VL: DIQMTQSPASLSISVGETVTITCRASENIYSNLAWYQQKQGKSPQVLVYGATNLADGVPSRFSGSGSGTQYSLKIKSLQSEDFGSYYCQHFWDSPFTFGSGTKLEIK
binding [1]: binds

Further lines, results first:

binding (LILRA3 (human)): binds
B1: Hz180-LALA (antibody, human IgG1, kappa, L234A L235A, V domains shown)
VH: QVQLVQSGAEVKKPGSSVKVSCKASGYSFIGYFMNWMRQAPGQGLEWIGRINPYNGDIFYNQKFKGRVTITVDKSTSTAYMELSSLRSEDTAVYYCARGITVAAGSFDVWGQGTTVTVSS
VL: DIVMTQSPDSLAVSLGERATINCRASESVDNYGNTFMHWYQQKPGQPPKLLIYRASNLESGIPDRFSGSGSGTDFTLTISSLQAEDVAVYYCQQSSDHPLTFGGGTKVEIKR

binding [2]: binds
binding [3]: binds
binding [4]: binds
binding [5]: binds
binding [6]: binds
binding [7]: binds
binding [8]: binds
binding [9]: binds
B6: Hz45.01-LALA (antibody, human IgG1, kappa, L234A L235A, V domains shown)
VH: QVQLVQSGAEVKKPGASVKVSCKASGYTFTDYYMNWVRQAPGQRLEWIGDINPNNGGTSYNQKFKGRATITVDTSASTAYMELSSLRSEDTAVYYCARGGAELTGTYWYFDVWGQGTTVTVSS
VL: DIQMTQSPSSLSASVGDRVTITCRASENIYSNLAWYQQKPGKAPKVLVYGATNLADGVPSRFSGSGSGTEYTLTISSLQPEDFATYYCQHFWDSPFTFGGGTKVEIKR

binding [10]: binds
binding [6]: binds
binding [7]: binds
binding [8]: binds
binding [11]: binds
binding [9]: binds
B7: Hz156.03-LALA (antibody, human IgG1, kappa, L234A L235A, V domains shown)
VH: QVQLVQSGAEVKKPGSSVKVSCKASGYTFTDYYMNWVRQAPGQGLEWIARIYPGVYRTHYNEKFKDRVTLTADKSTSTAYMELSSLRSEDTAVYYCARSGYYGGTYEEDAMDYWGQGTTVTVSS
VL: DIQMTQSPSSLSASVGDRVTITCRASENIYSNLAWYQQKPGKAPKLLVYAATSLADGVPSRFSGSGSGTDYTLTISSLQPEDFATYYCQNFWDTPYTFGQGTKVEIKR
